This note sets out measurements from the supplement of paper PMC7666118.

The chains behind the UniProt entries cited, without tags or fusion partners. Where a name states a change or a piece, a line headed by the entry shows the natural chain unless it says otherwise.
UniProt Q6ZUM4: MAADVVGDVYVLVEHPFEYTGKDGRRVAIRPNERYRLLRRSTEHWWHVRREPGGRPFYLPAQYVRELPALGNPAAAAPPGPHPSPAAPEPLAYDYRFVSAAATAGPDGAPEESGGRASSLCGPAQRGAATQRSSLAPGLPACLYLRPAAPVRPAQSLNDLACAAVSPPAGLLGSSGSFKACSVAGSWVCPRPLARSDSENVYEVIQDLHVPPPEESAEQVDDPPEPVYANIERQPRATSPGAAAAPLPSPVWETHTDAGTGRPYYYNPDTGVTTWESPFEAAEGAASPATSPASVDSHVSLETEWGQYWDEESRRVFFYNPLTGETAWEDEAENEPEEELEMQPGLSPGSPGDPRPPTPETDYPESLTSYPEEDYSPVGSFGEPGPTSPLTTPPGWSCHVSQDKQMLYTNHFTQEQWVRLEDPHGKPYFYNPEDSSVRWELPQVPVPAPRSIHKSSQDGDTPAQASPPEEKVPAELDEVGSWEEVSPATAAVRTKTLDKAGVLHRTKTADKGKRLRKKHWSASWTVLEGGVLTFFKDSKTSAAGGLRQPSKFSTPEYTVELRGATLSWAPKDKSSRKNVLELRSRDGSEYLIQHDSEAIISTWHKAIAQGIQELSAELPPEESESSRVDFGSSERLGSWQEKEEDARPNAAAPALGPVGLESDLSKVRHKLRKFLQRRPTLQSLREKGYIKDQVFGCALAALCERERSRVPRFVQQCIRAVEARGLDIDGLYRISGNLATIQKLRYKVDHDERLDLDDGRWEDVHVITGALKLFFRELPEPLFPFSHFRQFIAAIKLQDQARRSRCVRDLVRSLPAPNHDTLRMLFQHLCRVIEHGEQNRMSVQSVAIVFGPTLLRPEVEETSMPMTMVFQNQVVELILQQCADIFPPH
UniProt Q9BZE9, whole entry: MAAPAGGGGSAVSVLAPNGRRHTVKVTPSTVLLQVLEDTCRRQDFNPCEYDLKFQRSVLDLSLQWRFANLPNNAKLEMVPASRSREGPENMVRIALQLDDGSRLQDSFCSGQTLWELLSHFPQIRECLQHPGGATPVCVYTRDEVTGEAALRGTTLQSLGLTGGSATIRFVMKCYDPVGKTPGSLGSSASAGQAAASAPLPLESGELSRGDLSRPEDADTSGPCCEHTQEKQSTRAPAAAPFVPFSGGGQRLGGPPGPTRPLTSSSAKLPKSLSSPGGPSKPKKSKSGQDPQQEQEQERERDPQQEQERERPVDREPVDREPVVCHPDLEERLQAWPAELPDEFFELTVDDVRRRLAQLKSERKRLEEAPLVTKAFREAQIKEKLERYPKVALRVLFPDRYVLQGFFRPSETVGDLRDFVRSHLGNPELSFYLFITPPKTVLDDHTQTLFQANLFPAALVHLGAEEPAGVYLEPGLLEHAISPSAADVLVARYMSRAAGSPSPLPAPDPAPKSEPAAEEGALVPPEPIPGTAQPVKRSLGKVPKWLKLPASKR
UniProt Q6ZTN6: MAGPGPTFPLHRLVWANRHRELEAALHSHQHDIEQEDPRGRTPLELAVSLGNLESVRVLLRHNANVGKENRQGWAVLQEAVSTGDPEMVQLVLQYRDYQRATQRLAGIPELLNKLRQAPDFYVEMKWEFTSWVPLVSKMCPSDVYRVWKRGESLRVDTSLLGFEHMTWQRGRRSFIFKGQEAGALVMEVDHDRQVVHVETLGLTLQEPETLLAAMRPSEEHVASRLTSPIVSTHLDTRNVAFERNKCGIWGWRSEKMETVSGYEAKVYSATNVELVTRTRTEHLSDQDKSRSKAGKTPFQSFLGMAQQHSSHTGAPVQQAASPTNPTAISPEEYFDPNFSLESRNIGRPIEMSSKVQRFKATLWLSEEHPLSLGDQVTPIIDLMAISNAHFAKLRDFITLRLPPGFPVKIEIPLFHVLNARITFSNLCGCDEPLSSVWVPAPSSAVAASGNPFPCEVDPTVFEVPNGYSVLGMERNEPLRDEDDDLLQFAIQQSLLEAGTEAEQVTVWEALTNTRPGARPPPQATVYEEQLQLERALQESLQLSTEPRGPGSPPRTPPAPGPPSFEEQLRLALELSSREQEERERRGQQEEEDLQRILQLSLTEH
UniProt Q9H6L4: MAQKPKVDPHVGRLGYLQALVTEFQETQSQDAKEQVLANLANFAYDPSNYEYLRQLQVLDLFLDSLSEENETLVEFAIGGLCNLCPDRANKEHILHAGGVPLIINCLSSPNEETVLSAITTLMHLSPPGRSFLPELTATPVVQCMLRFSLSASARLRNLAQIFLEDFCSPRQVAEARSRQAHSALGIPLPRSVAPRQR
UniProt P07741: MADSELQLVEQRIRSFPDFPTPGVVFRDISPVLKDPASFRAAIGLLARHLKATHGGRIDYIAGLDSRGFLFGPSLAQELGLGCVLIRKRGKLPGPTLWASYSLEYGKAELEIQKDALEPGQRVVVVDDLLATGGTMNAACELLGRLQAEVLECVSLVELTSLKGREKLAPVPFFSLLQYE
UniProt Q6ZSZ5: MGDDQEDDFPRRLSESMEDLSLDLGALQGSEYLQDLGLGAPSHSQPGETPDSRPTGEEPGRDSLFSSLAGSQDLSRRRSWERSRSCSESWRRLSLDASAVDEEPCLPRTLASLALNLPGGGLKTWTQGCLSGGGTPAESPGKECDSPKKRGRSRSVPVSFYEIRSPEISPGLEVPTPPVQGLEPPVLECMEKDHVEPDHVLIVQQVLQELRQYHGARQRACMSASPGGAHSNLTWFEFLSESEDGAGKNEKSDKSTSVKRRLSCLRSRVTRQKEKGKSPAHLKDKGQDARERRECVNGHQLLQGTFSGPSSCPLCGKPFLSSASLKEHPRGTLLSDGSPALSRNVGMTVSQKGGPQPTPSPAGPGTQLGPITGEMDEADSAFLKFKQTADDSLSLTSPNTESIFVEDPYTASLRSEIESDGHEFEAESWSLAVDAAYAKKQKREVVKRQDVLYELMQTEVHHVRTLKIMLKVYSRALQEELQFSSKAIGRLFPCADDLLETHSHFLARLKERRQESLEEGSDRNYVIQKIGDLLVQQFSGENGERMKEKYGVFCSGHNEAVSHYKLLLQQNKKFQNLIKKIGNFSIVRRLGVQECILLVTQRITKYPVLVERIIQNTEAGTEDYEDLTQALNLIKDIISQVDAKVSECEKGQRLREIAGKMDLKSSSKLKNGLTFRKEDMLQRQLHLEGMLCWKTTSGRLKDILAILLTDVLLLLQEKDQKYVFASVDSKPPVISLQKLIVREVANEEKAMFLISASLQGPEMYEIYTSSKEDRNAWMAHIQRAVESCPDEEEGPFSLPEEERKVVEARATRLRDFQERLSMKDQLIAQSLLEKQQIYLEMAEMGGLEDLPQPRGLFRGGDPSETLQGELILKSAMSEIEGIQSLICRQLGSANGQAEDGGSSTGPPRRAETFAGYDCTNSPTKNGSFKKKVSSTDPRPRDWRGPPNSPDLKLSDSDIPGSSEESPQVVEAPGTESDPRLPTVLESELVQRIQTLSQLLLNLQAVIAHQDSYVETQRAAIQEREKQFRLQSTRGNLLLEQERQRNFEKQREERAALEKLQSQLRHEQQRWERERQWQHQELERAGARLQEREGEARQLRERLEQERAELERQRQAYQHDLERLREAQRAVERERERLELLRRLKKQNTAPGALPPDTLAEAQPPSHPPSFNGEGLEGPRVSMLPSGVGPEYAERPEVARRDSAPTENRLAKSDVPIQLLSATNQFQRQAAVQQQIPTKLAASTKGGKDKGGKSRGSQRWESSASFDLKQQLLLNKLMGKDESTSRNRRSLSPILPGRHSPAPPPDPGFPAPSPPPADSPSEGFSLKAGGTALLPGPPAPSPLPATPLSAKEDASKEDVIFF
UniProt O75915: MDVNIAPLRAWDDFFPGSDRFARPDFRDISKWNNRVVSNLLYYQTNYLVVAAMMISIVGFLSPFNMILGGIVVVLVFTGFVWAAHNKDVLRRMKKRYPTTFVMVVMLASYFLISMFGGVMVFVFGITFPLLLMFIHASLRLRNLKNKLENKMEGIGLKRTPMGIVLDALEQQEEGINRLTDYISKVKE
UniProt O75179: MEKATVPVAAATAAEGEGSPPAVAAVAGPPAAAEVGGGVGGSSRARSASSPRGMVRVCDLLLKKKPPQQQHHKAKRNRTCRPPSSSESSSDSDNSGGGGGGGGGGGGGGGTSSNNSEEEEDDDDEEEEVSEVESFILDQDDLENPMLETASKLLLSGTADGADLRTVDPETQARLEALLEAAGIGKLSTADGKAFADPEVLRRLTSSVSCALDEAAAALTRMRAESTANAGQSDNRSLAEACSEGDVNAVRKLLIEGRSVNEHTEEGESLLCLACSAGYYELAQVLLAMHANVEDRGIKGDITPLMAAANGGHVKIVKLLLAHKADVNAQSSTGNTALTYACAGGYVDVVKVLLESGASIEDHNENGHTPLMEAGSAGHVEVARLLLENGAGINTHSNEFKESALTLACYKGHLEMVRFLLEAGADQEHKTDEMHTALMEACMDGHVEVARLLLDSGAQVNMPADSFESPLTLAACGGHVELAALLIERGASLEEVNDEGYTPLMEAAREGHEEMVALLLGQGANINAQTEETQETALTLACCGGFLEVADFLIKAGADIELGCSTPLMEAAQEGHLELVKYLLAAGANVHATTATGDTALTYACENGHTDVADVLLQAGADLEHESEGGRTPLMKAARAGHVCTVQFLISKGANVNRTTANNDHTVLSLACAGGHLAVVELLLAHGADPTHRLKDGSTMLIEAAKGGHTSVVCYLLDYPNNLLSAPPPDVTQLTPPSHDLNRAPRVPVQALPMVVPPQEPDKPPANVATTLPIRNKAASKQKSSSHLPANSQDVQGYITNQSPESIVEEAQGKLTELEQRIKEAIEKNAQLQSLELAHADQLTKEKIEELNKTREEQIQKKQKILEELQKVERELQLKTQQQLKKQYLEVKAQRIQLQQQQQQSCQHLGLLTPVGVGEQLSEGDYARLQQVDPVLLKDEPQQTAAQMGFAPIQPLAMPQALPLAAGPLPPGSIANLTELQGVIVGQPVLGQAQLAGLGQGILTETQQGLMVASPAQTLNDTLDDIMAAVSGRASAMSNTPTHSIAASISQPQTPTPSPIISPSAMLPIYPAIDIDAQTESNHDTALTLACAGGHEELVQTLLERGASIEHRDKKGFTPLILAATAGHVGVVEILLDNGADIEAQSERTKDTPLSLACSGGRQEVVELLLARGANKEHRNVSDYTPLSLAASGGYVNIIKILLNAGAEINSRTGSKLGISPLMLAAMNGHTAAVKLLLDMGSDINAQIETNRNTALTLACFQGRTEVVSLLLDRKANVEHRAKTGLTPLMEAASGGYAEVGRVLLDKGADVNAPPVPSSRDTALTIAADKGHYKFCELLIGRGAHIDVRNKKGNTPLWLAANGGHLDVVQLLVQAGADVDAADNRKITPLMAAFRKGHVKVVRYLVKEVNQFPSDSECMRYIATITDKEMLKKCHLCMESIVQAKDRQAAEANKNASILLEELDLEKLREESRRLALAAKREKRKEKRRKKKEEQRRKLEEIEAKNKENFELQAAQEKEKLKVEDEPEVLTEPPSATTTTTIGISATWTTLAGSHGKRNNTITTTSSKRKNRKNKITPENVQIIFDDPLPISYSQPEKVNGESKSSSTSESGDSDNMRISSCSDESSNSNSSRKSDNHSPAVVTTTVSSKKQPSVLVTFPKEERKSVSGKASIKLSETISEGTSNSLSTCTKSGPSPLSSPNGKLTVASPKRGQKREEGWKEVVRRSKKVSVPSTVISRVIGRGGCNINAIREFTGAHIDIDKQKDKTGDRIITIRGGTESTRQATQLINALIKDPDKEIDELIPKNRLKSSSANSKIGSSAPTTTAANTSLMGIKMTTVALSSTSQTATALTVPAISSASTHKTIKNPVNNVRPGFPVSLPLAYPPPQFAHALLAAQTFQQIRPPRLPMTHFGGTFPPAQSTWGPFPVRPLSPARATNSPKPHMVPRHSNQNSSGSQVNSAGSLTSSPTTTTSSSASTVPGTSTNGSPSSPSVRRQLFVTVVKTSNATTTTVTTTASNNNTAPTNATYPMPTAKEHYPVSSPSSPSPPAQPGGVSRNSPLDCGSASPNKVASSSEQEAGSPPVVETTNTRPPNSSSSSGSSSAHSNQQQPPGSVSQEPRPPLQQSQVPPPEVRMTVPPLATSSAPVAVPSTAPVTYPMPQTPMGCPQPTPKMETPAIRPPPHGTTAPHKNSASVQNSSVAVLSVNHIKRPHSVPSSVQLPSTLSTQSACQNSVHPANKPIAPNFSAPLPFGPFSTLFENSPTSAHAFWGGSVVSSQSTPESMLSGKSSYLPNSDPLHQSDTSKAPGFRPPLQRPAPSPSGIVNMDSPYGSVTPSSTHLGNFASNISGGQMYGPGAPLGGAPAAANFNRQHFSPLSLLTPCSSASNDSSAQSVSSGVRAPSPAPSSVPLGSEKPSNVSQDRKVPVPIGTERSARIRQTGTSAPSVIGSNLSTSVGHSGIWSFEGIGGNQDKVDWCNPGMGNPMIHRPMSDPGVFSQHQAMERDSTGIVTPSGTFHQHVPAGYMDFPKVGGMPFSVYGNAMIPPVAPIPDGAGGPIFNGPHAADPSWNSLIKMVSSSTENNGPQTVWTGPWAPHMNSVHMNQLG

Some of the results follow.

Compound in this experiment: COc1ccc(Cn2ccc3cc(C)c(C(=O)NO)cc32)cc1
Kind of experiment: dose-dependent thermal stabilisation call (2D-TPP, DLPTP, 10% FDR) (binary (1 = stabilised)); higher = stabilised by the compound. The conditions noted are these: system: HL-60 intact cells; concentration range 0.04-10 µM. As to the method: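 2D thermal proteome profiling in intact HL-60 cells treated with BRD-3811 (0, 0.04, 0.29, 2, 10 uM) for 90 min at 37 C, then heated 3 min at one of 12 temperatures (42-63.9 C). Soluble protein was quantified by TMT10 MS. The value is the DLPTP call of the paper: dose-dependent thermal stabilisation over all temperatures at 10% FDR (F-test of a dose-response against a flat model); one experiment, one call per tested protein.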
ARL13B (UniProt Q3SXY8): the “dose-dependent thermal stabilisation call” value was inactive: 0.

For ARHGAP27 (UniProt Q6ZUM4), the “dose-dependent thermal stabilisation call” value was inactive: 0.

With APEH (UniProt P13798), the “dose-dependent thermal stabilisation call” value was inactive: 0.

In the case of AGPS (UniProt O00116), the “dose-dependent thermal stabilisation call” value is inactive: 0.

On to ALG8 (UniProt Q9BVK2), for which the “dose-dependent thermal stabilisation call” value is inactive: 0.

Turning to ASPH (UniProt Q12797), the “dose-dependent thermal stabilisation call” value was inactive: 0.

Turning to ASPSCR1 (UniProt Q9BZE9), the “dose-dependent thermal stabilisation call” value was inactive: 0.

For the target ANKRD13D (UniProt Q6ZTN6), the “dose-dependent thermal stabilisation call” value is inactive: 0.

For the target ARMC7 (UniProt Q9H6L4), the “dose-dependent thermal stabilisation call” value was inactive: 0.

Regarding AKAP2, the “dose-dependent thermal stabilisation call” value is inactive: 0.

With ARNT (UniProt P27540), the “dose-dependent thermal stabilisation call” value was inactive: 0.

In the case of APRT (UniProt P07741), the “dose-dependent thermal stabilisation call” value is inactive: 0.

On to ANO6 (UniProt Q4KMQ2), for which the “dose-dependent thermal stabilisation call” value is inactive: 0.

Consider AP3D1 (UniProt O14617), for which the “dose-dependent thermal stabilisation call” value was inactive: 0.

As to ARMCX3 (UniProt Q9UH62), the “dose-dependent thermal stabilisation call” value is inactive: 0.

For ATF7 (UniProt P17544), the “dose-dependent thermal stabilisation call” value was inactive: 0.

ARHGEF18 (UniProt Q6ZSZ5): the “dose-dependent thermal stabilisation call” value is inactive: 0.

Take API5 (UniProt Q9BZZ5): the “dose-dependent thermal stabilisation call” value is inactive: 0.

As for ARFGEF1 (UniProt Q9Y6D6), the “dose-dependent thermal stabilisation call” value was inactive: 0.

Take ALDH3B1 (UniProt P43353): the “dose-dependent thermal stabilisation call” value was inactive: 0.

With ATG16L1 (UniProt Q676U5), the “dose-dependent thermal stabilisation call” value is inactive: 0.

Consider ARL2 (UniProt P36404), for which the “dose-dependent thermal stabilisation call” value was inactive: 0.

For the target ANXA3 (UniProt P12429), the “dose-dependent thermal stabilisation call” value was inactive: 0.

For the target ANKRD44 (UniProt Q8N8A2), the “dose-dependent thermal stabilisation call” value was inactive: 0.

As for ALG13 (UniProt Q9NP73), the “dose-dependent thermal stabilisation call” value was inactive: 0.

With ARL6IP5 (UniProt O75915), the “dose-dependent thermal stabilisation call” value is inactive: 0.

For the target ATG7 (UniProt O95352), the “dose-dependent thermal stabilisation call” value was inactive: 0.

In the case of AGTPBP1 (UniProt Q9UPW5), the “dose-dependent thermal stabilisation call” value was inactive: 0.

On to ALKBH4 (UniProt Q9NXW9), for which the “dose-dependent thermal stabilisation call” value was inactive: 0.

On to ANKRD28 (UniProt O15084), for which the “dose-dependent thermal stabilisation call” value was inactive: 0.

For ALMS1 (UniProt Q8TCU4), the “dose-dependent thermal stabilisation call” value was inactive: 0.

For ALKBH5 (UniProt Q6P6C2), the “dose-dependent thermal stabilisation call” value is inactive: 0.

For ARHGEF6 (UniProt Q15052), the “dose-dependent thermal stabilisation call” value was inactive: 0.

In the case of ANKRD17 (UniProt O75179), the “dose-dependent thermal stabilisation call” value is inactive: 0.

For the target ARPC5 (UniProt O15511), the “dose-dependent thermal stabilisation call” value was inactive: 0.

With ARF5 (UniProt P84085), the “dose-dependent thermal stabilisation call” value is inactive: 0.

Consider ATG5 (UniProt Q9H1Y0), for which the “dose-dependent thermal stabilisation call” value was inactive: 0.

On to ARHGEF1 (UniProt Q92888), for which the “dose-dependent thermal stabilisation call” value is inactive: 0.

Consider AKT2 (UniProt P31751), for which the “dose-dependent thermal stabilisation call” value was inactive: 0.

Take ANXA1 (UniProt P04083): the “dose-dependent thermal stabilisation call” value was inactive: 0.
